Measured values: article PMC4858740
No constants are given. Whether binding was seen depends on the method and setting. A result given as binding can be weak or reduced; the word gives no strength.

Chains of the proteins cited; added tags and fusions are not shown. Lines headed by an entry give the natural chain unless they say otherwise; changes in a name come on top.
UniProt P09603: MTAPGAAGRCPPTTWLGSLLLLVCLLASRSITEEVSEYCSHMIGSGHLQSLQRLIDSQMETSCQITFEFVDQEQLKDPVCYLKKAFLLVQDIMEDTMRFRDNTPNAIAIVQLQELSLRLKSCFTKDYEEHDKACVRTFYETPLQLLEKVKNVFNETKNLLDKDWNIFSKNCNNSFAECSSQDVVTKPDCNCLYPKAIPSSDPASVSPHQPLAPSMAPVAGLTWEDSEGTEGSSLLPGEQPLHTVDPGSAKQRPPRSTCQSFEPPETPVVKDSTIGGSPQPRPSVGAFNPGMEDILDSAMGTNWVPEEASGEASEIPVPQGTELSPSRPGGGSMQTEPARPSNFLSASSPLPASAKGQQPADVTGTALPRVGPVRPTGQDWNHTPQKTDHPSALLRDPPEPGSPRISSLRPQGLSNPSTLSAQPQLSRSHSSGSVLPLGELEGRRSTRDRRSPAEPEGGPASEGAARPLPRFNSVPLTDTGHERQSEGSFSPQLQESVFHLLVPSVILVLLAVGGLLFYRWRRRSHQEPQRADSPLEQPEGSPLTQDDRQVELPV

Biological target: M-CSF (human) (UniProt P09603)
Assay: peptide or protein array; both purified

B1: EBV BARF1 (protein, UniProt P03228 21-221)
chain: VTAFLGERVTLTSYWRRVSLGPEIEVSWFKLGPGEEQVLIGRMHHDVIFIEWPFRGFFDIHRSANTFFLVVTAANISHDGNYLCRMKLGETEVTKQEHLSVVKPLTLSVHSERSQFPDFSVLTVTCTVNAFPHPHVQWLMPEGVEPAPTAANGGVMKEKDGSLSVAVDLSLPKPWHLPVTCVGKNDKEEAHGVYVSGYLSQ
binding: binds
